Test results taken from the supplement of paper PMC10849652.
Some of the results follow.

Amino acid sequences for entries named in this document (tags omitted). A change or cut given only in a name is not applied to a line headed by its entry.
UniProt Q3MIT2: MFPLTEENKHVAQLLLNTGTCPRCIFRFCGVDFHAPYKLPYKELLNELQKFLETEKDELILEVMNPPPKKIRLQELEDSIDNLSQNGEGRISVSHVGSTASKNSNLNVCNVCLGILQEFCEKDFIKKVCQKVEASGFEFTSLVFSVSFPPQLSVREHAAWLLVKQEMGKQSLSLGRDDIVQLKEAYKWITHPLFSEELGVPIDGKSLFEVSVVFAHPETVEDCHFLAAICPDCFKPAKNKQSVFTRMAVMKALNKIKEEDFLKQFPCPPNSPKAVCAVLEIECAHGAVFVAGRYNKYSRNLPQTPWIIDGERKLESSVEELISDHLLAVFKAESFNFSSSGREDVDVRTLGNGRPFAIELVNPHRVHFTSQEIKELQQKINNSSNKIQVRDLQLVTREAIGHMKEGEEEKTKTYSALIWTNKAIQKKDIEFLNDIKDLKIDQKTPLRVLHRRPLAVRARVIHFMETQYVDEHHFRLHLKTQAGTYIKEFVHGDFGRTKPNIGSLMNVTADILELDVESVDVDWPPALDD
UniProt Q05209: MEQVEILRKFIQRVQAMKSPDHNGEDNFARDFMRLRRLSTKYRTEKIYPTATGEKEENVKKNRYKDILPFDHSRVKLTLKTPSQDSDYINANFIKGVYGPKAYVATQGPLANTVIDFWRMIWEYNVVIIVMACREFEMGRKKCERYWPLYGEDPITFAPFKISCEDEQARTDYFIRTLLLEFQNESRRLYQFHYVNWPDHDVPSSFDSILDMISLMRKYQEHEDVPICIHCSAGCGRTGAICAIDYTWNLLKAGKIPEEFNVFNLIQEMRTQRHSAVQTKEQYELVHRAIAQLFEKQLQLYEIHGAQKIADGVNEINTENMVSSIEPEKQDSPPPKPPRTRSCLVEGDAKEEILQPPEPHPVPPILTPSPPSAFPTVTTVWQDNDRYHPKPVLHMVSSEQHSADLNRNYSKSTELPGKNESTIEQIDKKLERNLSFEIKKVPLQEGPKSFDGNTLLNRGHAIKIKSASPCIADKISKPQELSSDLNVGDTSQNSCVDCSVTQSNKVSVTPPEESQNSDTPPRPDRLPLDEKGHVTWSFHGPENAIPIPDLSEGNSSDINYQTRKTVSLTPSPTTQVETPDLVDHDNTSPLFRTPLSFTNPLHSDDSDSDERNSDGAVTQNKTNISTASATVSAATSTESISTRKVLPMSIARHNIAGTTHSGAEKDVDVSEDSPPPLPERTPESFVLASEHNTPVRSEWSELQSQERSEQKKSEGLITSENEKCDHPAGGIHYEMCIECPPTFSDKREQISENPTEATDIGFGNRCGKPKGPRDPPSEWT
UniProt Q8WUK0: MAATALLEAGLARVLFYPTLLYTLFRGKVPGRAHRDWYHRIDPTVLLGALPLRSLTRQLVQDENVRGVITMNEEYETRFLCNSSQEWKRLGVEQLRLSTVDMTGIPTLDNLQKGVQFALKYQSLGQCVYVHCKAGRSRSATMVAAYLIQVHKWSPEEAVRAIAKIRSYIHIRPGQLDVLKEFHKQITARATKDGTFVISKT
UniProt P20962: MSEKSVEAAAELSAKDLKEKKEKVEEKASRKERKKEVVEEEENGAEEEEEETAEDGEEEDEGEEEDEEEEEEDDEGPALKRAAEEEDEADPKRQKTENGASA
UniProt Q8TB72: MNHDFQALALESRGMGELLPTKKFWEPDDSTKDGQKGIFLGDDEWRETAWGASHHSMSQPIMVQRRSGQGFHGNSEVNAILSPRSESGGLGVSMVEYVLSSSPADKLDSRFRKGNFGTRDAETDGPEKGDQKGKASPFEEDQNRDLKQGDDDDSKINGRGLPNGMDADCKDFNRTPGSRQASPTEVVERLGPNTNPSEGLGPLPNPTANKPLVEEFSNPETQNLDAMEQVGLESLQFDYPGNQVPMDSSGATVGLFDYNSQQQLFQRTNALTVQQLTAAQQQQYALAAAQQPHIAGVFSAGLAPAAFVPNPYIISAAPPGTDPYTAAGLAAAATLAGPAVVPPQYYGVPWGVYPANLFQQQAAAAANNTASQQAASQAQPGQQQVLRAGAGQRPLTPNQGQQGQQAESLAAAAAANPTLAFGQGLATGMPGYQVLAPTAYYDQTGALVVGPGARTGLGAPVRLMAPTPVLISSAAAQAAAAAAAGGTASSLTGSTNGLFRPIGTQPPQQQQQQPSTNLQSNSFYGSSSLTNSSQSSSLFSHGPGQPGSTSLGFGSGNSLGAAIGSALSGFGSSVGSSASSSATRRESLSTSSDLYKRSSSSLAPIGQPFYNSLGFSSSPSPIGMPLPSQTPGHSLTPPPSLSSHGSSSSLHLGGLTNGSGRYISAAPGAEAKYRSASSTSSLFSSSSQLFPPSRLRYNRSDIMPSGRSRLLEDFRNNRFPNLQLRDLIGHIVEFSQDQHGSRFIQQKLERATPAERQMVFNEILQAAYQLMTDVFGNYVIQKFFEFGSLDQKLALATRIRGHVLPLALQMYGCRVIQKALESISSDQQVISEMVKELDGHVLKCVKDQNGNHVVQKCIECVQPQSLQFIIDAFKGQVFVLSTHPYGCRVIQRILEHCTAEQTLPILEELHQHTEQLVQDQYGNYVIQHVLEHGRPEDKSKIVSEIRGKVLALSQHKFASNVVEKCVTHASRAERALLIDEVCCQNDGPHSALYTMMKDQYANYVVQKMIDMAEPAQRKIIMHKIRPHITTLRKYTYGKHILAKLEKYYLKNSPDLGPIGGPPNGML
UniProt Q9H974: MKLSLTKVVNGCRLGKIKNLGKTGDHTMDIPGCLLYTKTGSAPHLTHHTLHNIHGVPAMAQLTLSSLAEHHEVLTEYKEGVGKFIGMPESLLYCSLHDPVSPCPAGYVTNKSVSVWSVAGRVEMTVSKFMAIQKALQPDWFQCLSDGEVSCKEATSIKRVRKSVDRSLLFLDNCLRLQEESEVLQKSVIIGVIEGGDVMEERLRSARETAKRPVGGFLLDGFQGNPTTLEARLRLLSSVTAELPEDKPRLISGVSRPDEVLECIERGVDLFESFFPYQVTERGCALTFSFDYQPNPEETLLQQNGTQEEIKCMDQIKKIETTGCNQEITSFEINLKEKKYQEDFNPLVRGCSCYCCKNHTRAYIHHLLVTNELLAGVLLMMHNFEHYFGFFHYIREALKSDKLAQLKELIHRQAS
UniProt P62195, whole entry, looked up: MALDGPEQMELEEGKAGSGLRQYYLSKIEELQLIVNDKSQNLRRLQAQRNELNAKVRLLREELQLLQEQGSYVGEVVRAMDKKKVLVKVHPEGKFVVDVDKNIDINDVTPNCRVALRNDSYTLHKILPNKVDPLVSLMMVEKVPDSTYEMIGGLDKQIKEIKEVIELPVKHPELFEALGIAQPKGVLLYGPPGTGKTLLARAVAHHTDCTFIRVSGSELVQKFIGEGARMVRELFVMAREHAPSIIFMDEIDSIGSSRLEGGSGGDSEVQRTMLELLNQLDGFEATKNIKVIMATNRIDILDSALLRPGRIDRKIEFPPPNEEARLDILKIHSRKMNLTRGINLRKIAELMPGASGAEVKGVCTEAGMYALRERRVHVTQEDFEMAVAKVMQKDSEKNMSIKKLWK
UniProt Q7Z6K3: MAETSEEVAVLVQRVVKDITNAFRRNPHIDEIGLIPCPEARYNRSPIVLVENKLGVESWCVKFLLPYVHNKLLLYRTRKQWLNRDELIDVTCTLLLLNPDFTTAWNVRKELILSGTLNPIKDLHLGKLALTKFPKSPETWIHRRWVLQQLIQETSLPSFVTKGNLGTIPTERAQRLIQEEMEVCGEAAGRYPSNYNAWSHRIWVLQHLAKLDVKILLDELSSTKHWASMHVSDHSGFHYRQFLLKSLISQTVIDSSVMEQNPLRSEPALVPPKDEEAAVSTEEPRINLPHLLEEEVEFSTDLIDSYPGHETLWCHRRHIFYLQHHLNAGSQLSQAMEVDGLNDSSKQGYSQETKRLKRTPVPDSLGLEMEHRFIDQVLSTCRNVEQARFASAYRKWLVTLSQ
UniProt P25786: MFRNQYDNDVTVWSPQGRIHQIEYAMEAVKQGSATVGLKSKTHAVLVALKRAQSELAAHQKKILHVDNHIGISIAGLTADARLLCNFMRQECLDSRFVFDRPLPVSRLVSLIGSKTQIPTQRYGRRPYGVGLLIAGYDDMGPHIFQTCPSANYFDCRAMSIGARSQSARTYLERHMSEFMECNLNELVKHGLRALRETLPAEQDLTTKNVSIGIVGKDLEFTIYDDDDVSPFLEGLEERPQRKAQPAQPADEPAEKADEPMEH
UniProt Q14289, whole entry, looked up: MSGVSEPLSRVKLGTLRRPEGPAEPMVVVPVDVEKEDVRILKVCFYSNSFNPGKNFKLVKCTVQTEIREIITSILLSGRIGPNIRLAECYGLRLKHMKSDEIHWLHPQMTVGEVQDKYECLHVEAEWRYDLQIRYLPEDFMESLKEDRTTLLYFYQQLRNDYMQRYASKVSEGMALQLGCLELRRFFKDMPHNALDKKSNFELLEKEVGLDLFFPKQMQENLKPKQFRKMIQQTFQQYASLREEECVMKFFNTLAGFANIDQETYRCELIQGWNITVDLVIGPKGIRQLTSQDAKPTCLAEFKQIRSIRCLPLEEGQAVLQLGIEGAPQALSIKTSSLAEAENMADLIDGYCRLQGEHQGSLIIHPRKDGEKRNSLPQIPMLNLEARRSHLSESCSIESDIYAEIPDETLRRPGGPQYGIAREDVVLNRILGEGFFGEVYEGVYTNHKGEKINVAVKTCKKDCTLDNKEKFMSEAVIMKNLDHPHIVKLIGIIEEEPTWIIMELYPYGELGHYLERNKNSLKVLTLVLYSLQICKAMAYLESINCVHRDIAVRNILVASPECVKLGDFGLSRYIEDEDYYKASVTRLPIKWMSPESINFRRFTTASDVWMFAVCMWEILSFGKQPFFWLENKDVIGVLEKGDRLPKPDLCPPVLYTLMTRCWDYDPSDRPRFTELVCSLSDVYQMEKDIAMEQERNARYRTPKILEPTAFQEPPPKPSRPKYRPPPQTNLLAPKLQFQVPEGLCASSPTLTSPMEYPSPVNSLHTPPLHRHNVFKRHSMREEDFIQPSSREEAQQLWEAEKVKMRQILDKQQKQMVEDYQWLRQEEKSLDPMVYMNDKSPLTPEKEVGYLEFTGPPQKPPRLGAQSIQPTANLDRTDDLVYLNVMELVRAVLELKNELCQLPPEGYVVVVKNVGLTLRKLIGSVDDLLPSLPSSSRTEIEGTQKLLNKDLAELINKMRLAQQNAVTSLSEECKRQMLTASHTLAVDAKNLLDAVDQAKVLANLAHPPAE
UniProt Q8TBF2: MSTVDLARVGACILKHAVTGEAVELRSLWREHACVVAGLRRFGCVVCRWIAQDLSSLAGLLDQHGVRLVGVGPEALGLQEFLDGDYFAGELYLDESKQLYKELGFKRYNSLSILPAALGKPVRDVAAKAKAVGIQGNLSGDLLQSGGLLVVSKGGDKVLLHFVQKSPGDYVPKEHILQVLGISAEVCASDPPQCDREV
UniProt Q9Y617: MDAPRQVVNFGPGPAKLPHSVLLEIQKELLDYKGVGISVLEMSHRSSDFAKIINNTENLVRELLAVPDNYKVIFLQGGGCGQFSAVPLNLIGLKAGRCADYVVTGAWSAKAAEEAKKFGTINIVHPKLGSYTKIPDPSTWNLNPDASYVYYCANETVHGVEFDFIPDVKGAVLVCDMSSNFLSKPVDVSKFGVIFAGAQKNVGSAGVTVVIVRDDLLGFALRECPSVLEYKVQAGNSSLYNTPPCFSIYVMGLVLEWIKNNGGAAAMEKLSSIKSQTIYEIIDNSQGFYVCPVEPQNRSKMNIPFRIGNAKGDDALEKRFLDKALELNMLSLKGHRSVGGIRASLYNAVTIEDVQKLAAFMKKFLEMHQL
UniProt O00233: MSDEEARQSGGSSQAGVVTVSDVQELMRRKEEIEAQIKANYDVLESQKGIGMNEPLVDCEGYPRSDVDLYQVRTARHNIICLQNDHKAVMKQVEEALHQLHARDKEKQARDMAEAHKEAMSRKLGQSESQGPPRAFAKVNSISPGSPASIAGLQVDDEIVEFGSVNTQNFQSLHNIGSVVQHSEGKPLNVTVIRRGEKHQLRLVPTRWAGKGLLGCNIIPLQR
UniProt Q7Z7A4: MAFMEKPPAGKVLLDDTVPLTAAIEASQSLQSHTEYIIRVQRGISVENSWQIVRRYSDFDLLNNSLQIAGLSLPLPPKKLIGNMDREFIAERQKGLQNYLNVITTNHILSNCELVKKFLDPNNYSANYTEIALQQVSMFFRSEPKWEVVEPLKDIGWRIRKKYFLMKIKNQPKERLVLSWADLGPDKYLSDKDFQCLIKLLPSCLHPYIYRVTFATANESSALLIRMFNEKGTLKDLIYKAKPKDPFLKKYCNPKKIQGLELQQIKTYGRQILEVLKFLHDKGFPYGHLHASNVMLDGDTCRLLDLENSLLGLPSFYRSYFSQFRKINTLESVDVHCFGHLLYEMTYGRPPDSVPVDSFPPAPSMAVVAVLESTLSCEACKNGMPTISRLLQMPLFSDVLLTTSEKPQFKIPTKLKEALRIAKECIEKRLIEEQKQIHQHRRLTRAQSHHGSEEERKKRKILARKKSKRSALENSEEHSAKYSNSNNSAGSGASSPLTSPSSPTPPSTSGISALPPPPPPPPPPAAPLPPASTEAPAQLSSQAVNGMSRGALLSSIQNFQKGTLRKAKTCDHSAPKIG

Compound: Cc1nc(Nc2ncc(C(=O)Nc3c(C)cccc3Cl)s2)cc(N2CCN(CCO)CC2)n1 [dasatinib]
Assay: log2 fold change, soluble protein after heating vs DMSO (PISA); higher = thermal stabilisation; K562 cells, 10 uM, 30 min; active = over 0.2 and 3.5 SD of the protein, either way, in both replicates (recomputed)
In short: (§1)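 K562 cells at 2×10^6 cells/mL were treated for 30 min with 10 μM compound, and aliquots were heated for 3 min over 48°C-58°C before pooling. Extraction used PBS with 0.5% NP-40 at 4°C, and soluble protein was the supernatant after 21,000xg for 90 min, measured by TMTpro 16plex LC-MS/MS with channel sums equalised. Thermal stability values, relative to control samples and from duplicates, are log2 fold changes.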

log2 fold change, inactive:
PUS10 (UniProt Q3MIT2) -0.063, PTPN12 (UniProt Q05209) -0.059, PSMC1 (UniProt P62191) 0.036, PTPMT1 (UniProt Q8WUK0) -0.138, PTMS (UniProt P20962) 0.034, PUM2 (UniProt Q8TB72) 0.043, PWP2 (UniProt Q15269) -0.062, PTER (UniProt Q96BW5) -0.001, PSMD13 (UniProt Q9UNM6) 0.023, QTRT2 isoform 4 (UniProt Q9H974) 0.036, PSMC5 (UniProt P62195) 0.033, PTRHD1 (UniProt Q6GMV3) -0.007, PTDSS2 (UniProt Q9BVG9) -0.028, PTAR1 (UniProt Q7Z6K3) 0.029, QKI (UniProt Q96PU8) -0.029, PSTPIP2 (UniProt Q9H939) -0.035, PSMA1 isoform 2 (UniProt P25786) 0.073, PTK2B (UniProt Q14289) -0.043, PWP1 (UniProt Q13610) 0.228, PRXL2B isoform 3 (UniProt Q8TBF2) 0.02, PTDSS1 (UniProt P48651) -0.002, PSMA2 (UniProt P25787) 0.068, PSMD6 (UniProt Q15008) 0.059, PRTFDC1 (UniProt Q9NRG1) 0.028, PSMC2 (UniProt P35998) 0.034, PYCR3 (UniProt Q53H96) -0.001, PSMA5 (UniProt P28066) 0.061, PSAT1 (UniProt Q9Y617) 0.058, PSIP1 (UniProt O75475) 0.079, PSMD9 (UniProt O00233) 0.037, PXK (UniProt Q7Z7A4) 0.226, PSAP isoform 3 (UniProt P07602) 0.068, PSMB6 (UniProt P28072) 0.098, PYGL (UniProt P06737) -0.027

Compound: Cc1ncc(-c2ccnc(Nc3ccc(S(C)(=O)=O)cc3)n2)n1C(C)C
Assay: as above
In short: as §1

log2 fold change, inactive:
PUS10 (UniProt Q3MIT2) -0.078, PTPN12 (UniProt Q05209) 0.074, PSMC1 (UniProt P62191) -0.014, PTPMT1 (UniProt Q8WUK0) 0.029, PTMS (UniProt P20962) 0.028, PUM2 (UniProt Q8TB72) -0.082, PWP2 (UniProt Q15269) 0.077, PTER (UniProt Q96BW5) -0.01, PSMD13 (UniProt Q9UNM6) -0.018, QTRT2 isoform 4 (UniProt Q9H974) -0.045, PSMC5 (UniProt P62195) -0.014, PTRHD1 (UniProt Q6GMV3) -0.061, PTDSS2 (UniProt Q9BVG9) 0.038, PTAR1 (UniProt Q7Z6K3) -0.048, QKI (UniProt Q96PU8) -0.093, PSTPIP2 (UniProt Q9H939) 0.004, PSMA1 isoform 2 (UniProt P25786) -0.012, PTK2B (UniProt Q14289) 0.276, PWP1 (UniProt Q13610) 0.155, PRXL2B isoform 3 (UniProt Q8TBF2) -0.055, PTDSS1 (UniProt P48651) 0.017, PSMA2 (UniProt P25787) -0.017, PSMD6 (UniProt Q15008) -0.014, PRTFDC1 (UniProt Q9NRG1) -0.016, PSMC2 (UniProt P35998) -0.018, PYCR3 (UniProt Q53H96) 0.002, PSMA5 (UniProt P28066) -0.007, PSAT1 (UniProt Q9Y617) -0.004, PSIP1 (UniProt O75475) -0.014, PSMD9 (UniProt O00233) 0.008, PXK (UniProt Q7Z7A4) 0.012, PSAP isoform 3 (UniProt P07602) 0.006, PSMB6 (UniProt P28072) -0.011, PYGL (UniProt P06737) -0.035

Compound: Cn1cc(-c2ccc3c(c2)CCN3C(=O)Cc2cccc(C(F)(F)F)c2)c2c(N)ncnc21
Assay: as above
In short: as §1

log2 fold change, inactive:
PUS10 (UniProt Q3MIT2) 0.059, PTPN12 (UniProt Q05209) -0.116, PSMC1 (UniProt P62191) -0.082, PTPMT1 (UniProt Q8WUK0) -0.056, PTMS (UniProt P20962) 0.103, PUM2 (UniProt Q8TB72) 0.006, PWP2 (UniProt Q15269) -0.137, PTER (UniProt Q96BW5) 0.024, PSMD13 (UniProt Q9UNM6) -0.114, QTRT2 isoform 4 (UniProt Q9H974) 0.051, PSMC5 (UniProt P62195) -0.113, PTRHD1 (UniProt Q6GMV3) 0.111, PTDSS2 (UniProt Q9BVG9) 0.056, PTAR1 (UniProt Q7Z6K3) 0.019, QKI (UniProt Q96PU8) -0.007, PSTPIP2 (UniProt Q9H939) -0.045, PSMA1 isoform 2 (UniProt P25786) -0.066, PTK2B (UniProt Q14289) -0.113, PWP1 (UniProt Q13610) -0.427, PRXL2B isoform 3 (UniProt Q8TBF2) 0.012, PTDSS1 (UniProt P48651) -0.089, PSMA2 (UniProt P25787) -0.047, PSMD6 (UniProt Q15008) -0.083, PRTFDC1 (UniProt Q9NRG1) -0.006, PSMC2 (UniProt P35998) -0.126, PYCR3 (UniProt Q53H96) 0.03, PSMA5 (UniProt P28066) -0.028, PSAT1 (UniProt Q9Y617) -0.006, PSIP1 (UniProt O75475) -0.102, PSMD9 (UniProt O00233) 0.018, PXK (UniProt Q7Z7A4) 0.029, PSAP isoform 3 (UniProt P07602) 0.002, PSMB6 (UniProt P28072) -0.068, PYGL (UniProt P06737) 0.001
